“And” between values parts separate entries of the source, which are not always exact repeats. Equal values may be shown once. Among all 300,000 compounds or so, about 5,400 (1.8%) were called active. Inconclusive means that the source gave no clear call. Such entries were picked first, then a sample of the others. The call rests on the fitted dose curve; tested in HEK293 cells. Potencies beside an inconclusive call are fits to weak or partial responses and may not hold up.
Assay: qHTS for inhibitors of binding or entry into cells for Marburg Virus
Conditions: Marburg virus pseudotyped entry inhibition, cell reporter; activity change, negative = inhibition: at 37.8 µM (top of the series) unless noted
On the % scale 0 is the no-effect control and ±100 the full control effect; potency means the concentration at half of the fitted maximal effect.

Question: Which Potency does the source give for `CC1Cc2ccccc2N1C(=O)C1CCCCN1S(=O)(=O)c1ccccc1` (configuration not stated) here?
Answer: inconclusive: 3.66 µM [inhibitor, partial curve, poor fit]

Question: For `O=C(Nc1ccccc1)Nc1ccc(Cl)c(S(=O)(=O)N2CCOCC2)c1`, which Potency is on record?
Answer: inconclusive: 35.5 µM [inhibitor, single point]

Question: Which Potency does the source give for `COc1ccc(NC(=O)C(c2ccccc2)N(C)C(=O)/C=C\c2ccc3c(c2)OCO3)cc1` (configuration not stated) here?
Answer: inconclusive: 25.1 µM [inhibitor, single point]

Question: Which “activity change, negative = inhibition” value does the source give for `Cc1cccc(C(=O)N/N=C/c2ccoc2)c1` here?
Answer: inactive: 12.9% [at 46.1 µM]

Question: For `CCC(C)(C)n1nnnc1C(c1cc(OC)ccc1OC)N1CCC(C(N)=O)CC1` (configuration not stated), which Potency is on record?
Answer: inconclusive: 25.1 µM [inhibitor, single point]

Question: For `O=C(CCc1nc2ccccc2c(=O)[nH]1)NC1CCN(Cc2ccccc2)CC1`, which Potency is on record?
Answer: inconclusive: 32.6 µM [inhibitor, partial curve, poor fit]

Question: For `COc1ccc(-c2ccc(-c3noc(C)n3)c(OC)n2)cc1`, which Potency is on record?
Answer: inconclusive: 1.03 µM [activator, partial curve]

Question: With `COc1ccc(-c2noc(CSc3nnc(C)n3-c3ccc(F)cc3)n2)cc1` as the compound, how does the “activity change, negative = inhibition” value read?
Answer: inactive: -10.8% [at 46.1 µM]

Question: Which Potency does the source give for `O=C(Nc1ccc(NC(=O)c2sc3ccccc3c2Cl)cc1)c1ccco1` here?
Answer: inconclusive: 8.91 µM [inhibitor, partial curve, poor fit]

Question: Which Potency does the source give for `CCOC(=O)c1sc2nccc(N(C)C)c2c1N=CNOCc1c(F)cccc1Cl` here?
Answer: inconclusive: 35.5 µM [inhibitor, partial curve, poor fit]

Question: For `O=C1N=C(N2CCOCC2)SC1=C1CCCCC1`, which Potency is on record?
Answer: inconclusive: 0.82 µM [activator, full curve, poor fit]

Question: Which “activity change, negative = inhibition” value does the source give for `Cc1nn(Cc2c(Cl)cccc2Cl)c(C)c1NC(=O)/C=C/c1cnn(C)c1C` here?
Answer: inactive: -0.464%

Question: With `Cc1cccc(-c2nc(CN3CCCC(C(=O)NC4CCCC4)C3)c(C)o2)c1` (configuration not stated) as the compound, how does the Potency read?
Answer: active: 14.6 µM

Question: For `CC(C)C(Sc1nc(-c2ccccc2)cc(-c2ccccc2)c1C#N)C(=O)O` (configuration not stated), which Potency is on record?
Answer: inconclusive: 20 µM [inhibitor, partial curve, poor fit]

Question: With `NC(=S)NNc1ccnc2cc(Cl)ccc12` as the compound, how does the Potency read?
Answer: inconclusive: 6.31 µM [inhibitor, full curve, poor fit]

Question: For `CCOc1ccc(NC(=O)C[n+]2ccccc2)cc1`, which Potency is on record?
Answer: inconclusive: 3.55 µM [inhibitor, single point]

Question: Which Potency does the source give for `COc1ccc2c(CC(=O)OCC(=O)NC(=O)c3cccn3C)coc2c1` here?
Answer: inconclusive: 11.2 µM [activator, partial curve]

Question: With `Nc1nonc1C(=O)N/N=C/c1ccc([N+](=O)[O-])o1` as the compound, how does the Potency read?
Answer: inconclusive: 1 µM [inhibitor, full curve, poor fit]

Question: Which Potency does the source give for `Cc1sc2ncnc(N3CCC(C(=O)NNC(=O)COc4ccccc4Cl)CC3)c2c1C` here?
Answer: inconclusive: 35.5 µM [inhibitor, single point]

Question: Which “activity change, negative = inhibition” value does the source give for `N#CCc1c(C#N)c(N)nc(N2CCCC(O)C2)c1C#N` (configuration not stated) here?
Answer: inactive: 10%

Question: Which Potency does the source give for `N#Cc1ccc(C(=O)Nc2nnc(-c3ccccn3)o2)cc1` here?
Answer: inconclusive: 2 µM [activator, partial curve, poor fit]

Question: With `O=C(Cc1ccccc1[N+](=O)[O-])NCc1ccc(Cl)cc1` as the compound, how does the Potency read?
Answer: inconclusive: 5.01 µM [activator, full curve, poor fit]

Question: Which Potency does the source give for `COc1ccc(-c2cc(=O)oc3cc(OCC(C)=O)ccc23)cc1` here?
Answer: inconclusive: 35.5 µM [activator, single point]

Question: For `N#Cc1ccc(-c2ccco2)nc1SCc1ccccc1`, which “activity change, negative = inhibition” value is on record?
Answer: inactive: -18.7%

Question: For `COCCN(C(=O)CSc1nnc(C)n1Cc1ccccc1)c1c(N)n(Cc2ccccc2)c(=O)[nH]c1=O`, which Potency is on record?
Answer: inconclusive: 35.5 µM [activator, partial curve, poor fit]

Question: Which “activity change, negative = inhibition” value does the source give for `O=C1NC(c2ccccc2)=C(c2nc3ccccc3s2)C(c2ccccc2)N1` (configuration not stated) here?
Answer: inactive: -21.3%

Question: Which Potency does the source give for `COc1ccc(-n2cc(-c3ccccc3)c3c(=O)[nH]cnc32)cc1` here?
Answer: inconclusive: 17.8 µM [inhibitor, single point]

Question: With `O=C(COC(=O)c1ccc2c(=O)n3c(nc2c1)CCC3)NC1CCS(=O)(=O)C1` (configuration not stated) as the compound, how does the “activity change, negative = inhibition” value read?
Answer: inactive: 21.8%

Question: Which Potency does the source give for `CC1=CC(C)(C)NC(=S)N1c1ccc(C)cc1C` here?
Answer: inconclusive: 6.31 µM [inhibitor, full curve, poor fit]

Question: Which “activity change, negative = inhibition” value does the source give for `Cc1cc(Cl)ccc1NC(=O)CSc1nc2c(c(=O)[nH]1)CCC2` here?
Answer: inactive: 0.308% [at 46.1 µM]

Question: Which “activity change, negative = inhibition” value does the source give for `COC(=O)c1sc(N2C(=O)c3oc4ccc(C)cc4c(=O)c3C2c2ccc(OC)cc2)nc1C` (configuration not stated) here?
Answer: inactive: 9.03% [at 46.1 µM]

Question: With `COc1cc2c(cc1OC)-c1cc(Nc3cccc(F)c3)nc(=O)n1CC2` as the compound, how does the Potency read?
Answer: inconclusive: 0.708 µM [activator, partial curve, poor fit]

Question: Which Potency does the source give for `Oc1cc(O)cc(/C=C/c2ccc(O)c(O)c2)c1` here?
Answer: inconclusive: 22.4 µM [inhibitor, single point] and inconclusive: 3.26 µM [inhibitor, partial curve, poor fit]

Question: For `O=C(/C=C/c1cccs1)N1CCN(c2ccc(O)cc2)CC1`, which Potency is on record?
Answer: inconclusive: 4.47 µM [activator, partial curve]

Question: Which Potency does the source give for `O=S(Cc1ccccc1)CC(O)(c1ccc(Cl)cc1)c1ccc(Cl)cc1` (configuration not stated) here?
Answer: inconclusive: 29.1 µM [inhibitor, single point]

Question: For `CC(=O)Nc1ccc(NC(=O)[C@@H]2CCCC[C@@H]2C(=O)O)cc1`, which “activity change, negative = inhibition” value is on record?
Answer: inactive: -0.649%

Question: For `C[C@@H]1[C@@H](c2ccccc2)Cc2nc3ccccc3nc2C[C@H]1C(=O)N1CCCC1`, which “activity change, negative = inhibition” value is on record?
Answer: inactive: -14.8% [at 14.2 µM]

Question: Which Potency does the source give for `COc1ccc(CCNC(=O)c2c[nH]c3ccccc3c2=O)cc1OC` here?
Answer: inconclusive: 18.3 µM [inhibitor, single point]

Question: With `COc1ccc(-n2nc(C(=O)NCC(=O)NCc3ccc(F)cc3)c3ccccc3c2=O)cc1` as the compound, how does the Potency read?
Answer: inconclusive: 35.5 µM [inhibitor, single point]

Question: With `COc1ccc(CCNC(=O)CN2C(=O)COc3ccc(S(=O)(=O)N4CCCC4)cc32)cc1OC` as the compound, how does the Potency read?
Answer: inconclusive: 22.4 µM [inhibitor, single point]

Question: With `Cc1ccc(Cl)cc1N1CCN(c2nc3ccccc3c3nc(-c4cccnc4)nn23)CC1` as the compound, how does the “activity change, negative = inhibition” value read?
Answer: inactive: 6.56% [at 46.1 µM]

Question: With `CC1CCN(C(=S)Nc2ccc(F)cc2)CC1` as the compound, how does the Potency read?
Answer: inconclusive: 0.562 µM [activator, full curve, poor fit]
